Drawing on paper PMC5430443, this text covers binding for one molecule.

Results are given in words; binding and its absence hold for the method and conditions named. In cells and extracts the contact can be indirect. Some results given as binding are weak or reduced against the parent protein; the word gives no strength. Where a sequence is shown, tags or fusion partners need not be part of it.

The target in experiment [1] is GST-FMRP-1-200 Y96L (human) (UniProt Q06787). In words: pull-down; 20 ug GST-tagged protein pre-coupled to glutathione Sepharose 4B, lysate of HEK293T cells (endogenous proteins or Flag-tagged proteins 36 h after transfection; 100 mM NaCl, 20 mM Tris-HCl pH 7.4, 5 mM MgCl2, 0.5% Igepal CA-630), 4 h at 4 C, with or without RNase A 0.5 mg/ml; immunoblotting; only the target purified. In general terms: Immunoblotting shows a protein as a band on a membrane.

In experiment [2] the target is GST-FMRP-1-200 F32L (human) (UniProt Q06787). The description is as above.

B1: Flag-BAIAP2L1 (protein, UniProt Q9UHR4 1-511)
chain: MSRGPEEVNRLTESTYRNVMEQFNPGLRNLINLGKNYEKAVNAMILAGKAYYDGVAKIGEIATGSPVSTELGHVLIEISSTHKKLNESLDENFKKFHKEIIHELEKKIELDVKYMNATLKRYQTEHKNKLESLEKSQAELKKIRRKSQGSRNALKYEHKEIEYVETVTSRQSEIQKFIADGCKEALLEEKRRFCFLVDKHCGFANHIHYYHLQSAELLNSKLPRWQETCVDAIKVPEKIMNMIEEIKTPASTPVSGTPQASPMIERSNVVRKDYDTLSKCSPKMPPAPSGRAYTSPLIDMFNNPATAAPNSQRVNNSTGTSEDPSLQRSVSVATGLNMMKKQKVKTIFPHTAGSNKTLLSFAQGDVITLLIPEEKDGWLYGEHDVSKARGWFPSSYTKLLEENETEAVTVPTPSPTPVRSISTVNLSENSSVVIPPPDYLECLSMGAAADRRADSARTTSTFKAPASKPETAAPNDANGTAKPPFLSGENPFATVKLRPTVTNDRSAPIIR
As to B1, the binding entry in experiment [1] and in experiment [2] was “binds” in each case.
